Data: publication PMC12627016
These are yes or no findings as the source states them, for the method shown. For some assays here: Binding seen in cells or lysates may run through a third protein. Some entries that bind do so weakly or less than the wild type. For some assays here: Where a sequence is shown, tags or fusion partners need not be part of it.

B1: AD-OsSPL1 (sphingosine-1-phosphate lyase, full-length CDS) (protein, UniProt Q52RG7 1-539)
chain: MELAMDFALRLRDAANHHLSRYEPLVLLAAPLLALLAARTLHAAAAAVADRGLRTVLLALAMTAIKLLPGVSAYINAEKRKVVDQLQSGGTSTKSTLRTELPTVGLSNQVINDLETLKARDVNWQGKCSGTVYIAGSESEGHFALINKAYSMFSHTNPLHQDVFKSVAQLEAEVVAMTAALLGIKEKSSGGQICGNMTSGGTESILLAVKTSRDYMRTKKGITKPEMIIAESAHSAYDKAAQYFNIKVRRVPVNKEFLADVKGFKRCINGNTIMMVGSAPGFPHGLIDPIEELGELASRYDICLHVDLCLGGFVLPFARKLGYPIPPFDFCVKGVTSISTDVHKYGLAPKGTSIVLYKNHEIRKHQFVAVTEWTGGLYVSPTIAGSRPGGLIAGAWAAMTSLGLNGYMENTGHIMEVSKKIQRGIEDIPGLFVIGKPDMTVVAFGSDSVDIFEVNDIMSSKGWHLNALQRPNSLHICVTLQHTVIYEEFLKDLKDSVDTVKANPGPISGGRAPIYGAAGKMPDRGMVRELLVEFMDASC
B2: YCE-OsSPL1 (protein, UniProt Q52RG7 47-539)
chain: AVADRGLRTVLLALAMTAIKLLPGVSAYINAEKRKVVDQLQSGGTSTKSTLRTELPTVGLSNQVINDLETLKARDVNWQGKCSGTVYIAGSESEGHFALINKAYSMFSHTNPLHQDVFKSVAQLEAEVVAMTAALLGIKEKSSGGQICGNMTSGGTESILLAVKTSRDYMRTKKGITKPEMIIAESAHSAYDKAAQYFNIKVRRVPVNKEFLADVKGFKRCINGNTIMMVGSAPGFPHGLIDPIEELGELASRYDICLHVDLCLGGFVLPFARKLGYPIPPFDFCVKGVTSISTDVHKYGLAPKGTSIVLYKNHEIRKHQFVAVTEWTGGLYVSPTIAGSRPGGLIAGAWAAMTSLGLNGYMENTGHIMEVSKKIQRGIEDIPGLFVIGKPDMTVVAFGSDSVDIFEVNDIMSSKGWHLNALQRPNSLHICVTLQHTVIYEEFLKDLKDSVDTVKANPGPISGGRAPIYGAAGKMPDRGMVRELLVEFMDASC

Key:
[1] = target: T1, BD-OsNRAT1 (Nramp aluminum transporter 1) (rice) (UniProt Q6ZG85); assay: two-hybrid; BD-OsNRAT1 and AD-OsSPL1 co-transformed into Y2H Gold yeast; growth on SD/-Leu-Trp, SD/-Leu-Trp-His-Ade and SD/-Leu-Trp-His-Ade + X-α-Gal, 30°C, 3 to 5 days
T1 sequence: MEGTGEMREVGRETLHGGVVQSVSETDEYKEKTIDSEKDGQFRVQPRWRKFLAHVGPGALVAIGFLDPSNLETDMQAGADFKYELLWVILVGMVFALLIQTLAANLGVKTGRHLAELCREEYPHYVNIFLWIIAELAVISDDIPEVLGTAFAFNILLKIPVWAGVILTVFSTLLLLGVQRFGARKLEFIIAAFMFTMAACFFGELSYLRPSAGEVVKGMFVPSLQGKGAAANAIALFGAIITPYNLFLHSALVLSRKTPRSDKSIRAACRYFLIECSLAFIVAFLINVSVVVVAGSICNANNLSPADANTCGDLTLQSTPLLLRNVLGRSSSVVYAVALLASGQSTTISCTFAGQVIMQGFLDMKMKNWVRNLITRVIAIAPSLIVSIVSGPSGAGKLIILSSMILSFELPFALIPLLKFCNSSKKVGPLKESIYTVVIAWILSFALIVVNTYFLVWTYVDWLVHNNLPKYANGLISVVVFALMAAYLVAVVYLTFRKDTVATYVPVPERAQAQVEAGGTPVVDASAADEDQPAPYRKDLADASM

YNE-OsNRAT1 (rice) = target: T2, YNE-OsNRAT1 (rice) (UniProt Q6ZG85); assay: split reporter; BiFC: YNE-OsNRAT1 and YCE-OsSPL1 co-infiltrated by Agrobacterium GV3101 into Nicotiana benthamiana leaves; YFP fluorescence by confocal microscopy after 48-72 h; empty YNE and YCE vectors as controls
T2 sequence: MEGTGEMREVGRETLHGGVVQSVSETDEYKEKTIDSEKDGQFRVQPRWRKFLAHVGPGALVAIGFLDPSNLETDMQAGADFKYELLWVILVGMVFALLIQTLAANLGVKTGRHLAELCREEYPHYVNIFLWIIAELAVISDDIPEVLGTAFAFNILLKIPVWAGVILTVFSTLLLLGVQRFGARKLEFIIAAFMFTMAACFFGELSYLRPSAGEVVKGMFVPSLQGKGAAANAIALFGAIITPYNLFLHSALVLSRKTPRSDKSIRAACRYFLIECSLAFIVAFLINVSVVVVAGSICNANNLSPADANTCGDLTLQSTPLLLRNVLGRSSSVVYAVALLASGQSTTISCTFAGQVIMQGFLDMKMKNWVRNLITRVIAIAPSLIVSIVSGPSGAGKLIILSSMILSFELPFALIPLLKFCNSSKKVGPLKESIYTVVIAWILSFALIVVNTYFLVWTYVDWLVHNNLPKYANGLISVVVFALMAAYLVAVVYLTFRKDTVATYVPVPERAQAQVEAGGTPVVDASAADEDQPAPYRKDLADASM

Row | Binder | binding [1] | binding (YNE-OsNRAT1 (rice))
1 | B1 | binds | –
2 | B2 | – | binds
